Values joined by “and” are separate entries in the source; they are usually repeats but may differ in a detail not shown here. Identical values can stand only once. Inconclusive results, whose numbers are uncertain, are shown with a selection of clear calls. Potencies beside an inconclusive call are fits to weak or partial responses and may not hold up. Some compounds were tested as several samples or in several runs, with calls that do not always agree. Active and inactive are the calls of the source. Calls come from the whole dose curve.
Target: Retinoic acid receptor RXR-alpha (Homo sapiens) (UniProt P19793)
Experiment: qHTS assay to identify small molecule agonists of the RXR signaling pathway (AID 1159527); note: nearly all actives have a fitted effect of over 35% in size
Conditions: HEK293T RXRa-UAS-bla, beta-lactamase ratio, 16 h; activation: at 76.8 µM (top of the series) unless noted
Procedure, shortened: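 GeneBLAzer RXR-alpha-UAS-bla HEK 293T cells in medium with 2% charcoal-stripped FBS, pre-incubated 5 hr at 37 C, then exposed to compounds 16 hr. Beta-lactamase reporter read by FRET substrate, 2 hr room temperature, 460/530 nm emission.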
% is set by controls: 0 for no effect and ±100 for the full control effect; potency is the fitted concentration of half-maximal effect.

Sequences of proteins named here, by UniProt entry; tags and fusion partners are left off. A change or cut given only in a name is not applied to a line headed by its entry.
UniProt P19793: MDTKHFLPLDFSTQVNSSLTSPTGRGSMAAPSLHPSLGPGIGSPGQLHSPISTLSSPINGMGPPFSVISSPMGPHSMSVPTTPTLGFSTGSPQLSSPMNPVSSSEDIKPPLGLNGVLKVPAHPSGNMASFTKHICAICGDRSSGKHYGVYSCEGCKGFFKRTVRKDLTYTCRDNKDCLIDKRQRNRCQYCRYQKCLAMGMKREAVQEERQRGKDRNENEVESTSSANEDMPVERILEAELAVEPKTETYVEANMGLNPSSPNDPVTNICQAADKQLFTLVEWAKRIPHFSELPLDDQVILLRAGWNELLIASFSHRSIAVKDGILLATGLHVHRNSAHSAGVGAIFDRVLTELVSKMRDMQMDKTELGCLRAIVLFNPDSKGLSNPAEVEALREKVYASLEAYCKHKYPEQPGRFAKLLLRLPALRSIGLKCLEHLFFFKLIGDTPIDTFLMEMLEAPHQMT

Structure (SMILES) | Potency | activation
ClC(Cl)(Cl)c1ccc(C(Cl)(Cl)Cl)cc1 | inconclusive: 9.67 µM [rising, full curve, poor fit] | 
CCCCCCC(CO)CCCC (stereo not given) |  | inactive: 3.07%
O=C1OC2(c3ccc(O)cc3Oc3cc(O)ccc32)c2ccc(N=C=S)cc21 | inconclusive: 39.6 µM [rising, partial curve, poor fit] | 
CCCC(C)C(=O)O (stereo not given) | inconclusive: 18.7 µM [rising, single point] | 
CCCCCCCCCCCCN1CCOCC1 |  | inconclusive: -26.2%
Cc1oc(-c2ccccc2)nc1CCC(=O)c1ccc(CC2SC(=O)NC2=O)cc1 (stereo not given) | inconclusive: 9.52 µM [fluorescent, partial curve] | 
CC1(C)NC(=O)NC1=O |  | inconclusive: 7.07%
CC(=O)O[C@@H]1CC2CCC1(C)C2(C)C (stereo not given in full) |  | inactive: -5.8%
CC1(C)O[C@H]2CC(=O)OC[C@]23[C@H]2CC[C@@]4(C)[C@H](c5ccoc5)OC(=O)[C@H]5O[C@]54[C@]2(C)C(=O)C[C@@H]13 |  | inactive: -1.06% [at 35.3 µM]
O=S(=O)(O)c1ccccc1/C=C/c1ccc(-c2ccc(/C=C/c3ccccc3S(=O)(=O)O)cc2)cc1 | active: 35.2 µM | 
COc1cccc(CCc2ccccc2OCC(CN(C)C)OC(=O)CCC(=O)O)c1 (stereo not given) |  | inconclusive: -33% [at 35.3 µM]
C[n+]1ccn(Cc2ccccc2)c1 |  | inactive: 0.22%
COC(C)COC(C)COC(C)CO (stereo not given) |  | inconclusive: 15.3% and inconclusive: 17.7%
C[C@H](CCC(=O)O)[C@H]1CC[C@H]2[C@@H]3C(=O)C[C@@H]4CC(=O)CC[C@]4(C)[C@H]3CC(=O)[C@]12C |  | inactive: 7.29% [at 35.3 µM]
CCCCCCCCCI | inconclusive: 0.0031 µM [rising, full curve, poor fit] | 
CC(C)C(C)(C)C(C)(C)C(C)(C)S | inconclusive: 0.0012 µM [falling, partial curve, poor fit] | 
CCc1ccccc1O | active: 5.47 µM and inactive | 
Nc1ccccc1S(=O)(=O)c1ccccc1 |  | inactive: 3.46%
[Cl][Pt-2]([Cl])([Cl])[Cl] | inconclusive: 61.9 µM [rising, partial curve, poor fit] | 
CCC(C)CCCC(C)(C)O (stereo not given) | inconclusive: 17.4 µM [activator, partial curve, poor fit] | 
COc1cc(C=O)ccc1O | inactive | 
O=C(O)CNC(=O)c1ccc(CO)o1 |  | inactive: -0.112%
CCCc1c(OCCCCc2nn[nH]n2)ccc(C(C)=O)c1O | active: 54.9 µM and active: 23.9 µM | 
CC(=O)OCC=C(C)C |  | inactive: 11.1% [at 35.3 µM]
CC(C)CCOCc1ccccc1 |  | inactive: 12.2%

— PubChem BioAssay (Tox21)
